Patent EP0767778B1, “1-PHENOXY-3-N-ALKYLAMINOPROPAN-2-OL HALOGEN DERIVATIVES USEFUL AS MYOCARDIAL beta [sequence] RECEPTOR MARKERS AND AS beta-BLOCKING AGENTS” (CIS BIO INTERNATIONAL, priority 1994, dated 1996)

Molecular target: récepteurs β adrénergiques
Experiment: displacement of [^3H]CGP 12177 previously bound on newborn rat cardiomyocytes
Assay type: binding
Settings: [^3H]CGP 12177 5.10^-9M, 30 minutes d'incubation; cardiomyocytes de rats nouveau-nés; read-out: CI50 (the source's name)
Procedure: Dans cet exemple, on teste l'affinité du composé 6 marqué avec ^123I vis-à-vis des récepteurs β adrénergiques.
On étudie sur cardiomyocytes de rats nouveau-nés la capacité du composé 6 à déplacer le [^3H]CGP 12177 préalablement fixé sur les récepteurs.
A la dose de 5.10^-9M et après 30 minutes d'incubation, le [^3H]CGP 12177 occupe tous les récepteurs β adrénergiques des cardiomyocytes.

SMILES: CC(C)NCC(O)COc1cccc2ccccc12 (stereo not shown) [propranolol]
- IC50: 190 nM
